Conjugation yield data for 1 substance are collected here from US8470776B2 (Aeterna Zentaris GmbH, priority 2006, dated 2013).

The nature of the series: general procedure: peptide synthesis; HATU/DIPEA. The settings on record: conjugation step.

Substance “Disorazole Z Mono Hemi Succinyl Somatostatin (18); peptide H-D-Phe-Cys-Tyr-D-Trp-Lys(Fmoc)-Val-Cys-Thr-NH2×HCl (disulfide bridged)” registered a conjugation yield of 33%.
